Experimental data: US6719969B1, “Treatment of liver disease and injury with CXC chemokines” (The Regents of The University of Michigan, priority 1999, dated 2004)

B1: KC: murine ELR-CXC chemokine with neutrophil chemotactic properties (protein, UniProt P12850 25-96, looked up)
Growth-regulated alpha protein: APIANELRCQCLQTMAGIHLKNIQSLKVLPSGPHCTQTEVIATLKNGREACLDPEAPLVQKIVQKMLKGVPK
B2: MIP-1α: murine CC chemokine, endogenous hepatic level measured (protein, UniProt P10855 24-92, looked up)
C-C motif chemokine 3: APYGADTPTACCFSYSRKIPRQFIVDYFETSSLCSQPGVIFLTKRNRQICADSKETWVQEYITDLELNA
B3: MIP-2: ELR-containing CXC chemokine, macrophage inflammatory protein-2; recombinant murine protein (protein, UniProt P10889 28-100, looked up)
C-X-C motif chemokine 2: AVVASELRCQCLKTLPRVDFKNIQSLSVTPPGPHCAQTEVIATLKGGQKVCLDPEAPLVQKIIQKILNKGKAN

Test system: liver homogenates of CD1 mice
Test: Hepatic chemokine levels before and after acetaminophen challenge (ELISA)
Type: in vivo, mouse
Conditions: mice fasted 12 h; for Hepatic level, 48 h post Acetaminophen: 400 mg/kg acetaminophen i.p.; for Hepatic level, Prior to Acetaminophen: liver homogenate ELISA

Row | Molecule | Hepatic level, 48 h post Acetaminophen | Hepatic level, Prior to Acetaminophen
1 | MCP-1: murine CC chemokine, endogenous hepatic level measured | 0.9 ± 0.3 ng/g tissue | 1.0 ± 0.1 ng/g tissue
2 | B1 | 0.9 ± 0.2 ng/g tissue | 0.4 ± 0.1 ng/g tissue
3 | B2 | 0.1 ± 0.2 ng/g tissue | 0.5 ± 0.1 ng/g tissue
4 | B3 | 0.8 ± 0.1 ng/g tissue | 0.4 ± 0.1 ng/g tissue
